Measurements taken from PMC6319010.
Results are given in words; binding and its absence hold for the method and conditions named. In cells and extracts the contact can be indirect. Some results given as binding are weak or reduced against the parent protein; the word gives no strength. For some assays here: Where a sequence is shown, tags or fusion partners need not be part of it. Each block holds one molecule with its values, some of them ahead of it.

Amino acid sequences for entries named in this document (tags omitted).
UniProt P63104: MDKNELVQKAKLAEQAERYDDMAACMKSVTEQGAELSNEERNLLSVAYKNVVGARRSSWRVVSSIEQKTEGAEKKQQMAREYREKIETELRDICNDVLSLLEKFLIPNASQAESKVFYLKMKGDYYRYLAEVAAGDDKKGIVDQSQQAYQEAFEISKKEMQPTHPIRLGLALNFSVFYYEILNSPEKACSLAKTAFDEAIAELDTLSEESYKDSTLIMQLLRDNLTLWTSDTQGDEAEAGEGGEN

How the values were obtained:
[1] = target: T1, heme oxygenase-1 (HO-1), endogenous (human (endogenous in Bel7402)) (UniProt P09601); assay: co-IP; Bel7402 cell lysate, endogenous proteins; IP with anti-14-3-3ζ or anti-HO-1, blot for 14–3-3ζ and HO-1
T1 sequence: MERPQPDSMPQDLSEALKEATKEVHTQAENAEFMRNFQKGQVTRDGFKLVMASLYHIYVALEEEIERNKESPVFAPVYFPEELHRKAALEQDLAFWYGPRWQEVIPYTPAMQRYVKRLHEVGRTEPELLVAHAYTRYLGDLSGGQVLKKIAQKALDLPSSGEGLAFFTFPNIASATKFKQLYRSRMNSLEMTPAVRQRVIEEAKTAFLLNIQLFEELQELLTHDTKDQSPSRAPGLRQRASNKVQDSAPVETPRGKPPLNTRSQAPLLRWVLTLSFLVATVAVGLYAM

[2] = target: T2, FLAG-tagged full-length heme oxygenase-1 (HO-1) (human) (UniProt P09601); assay: co-IP; whole cell lysate of HEK293 cells transfected with Flag-tagged HO-1; IP with anti-FLAG or anti-14-3-3ζ, blot for FLAG and 14–3-3ζ
T2 sequence: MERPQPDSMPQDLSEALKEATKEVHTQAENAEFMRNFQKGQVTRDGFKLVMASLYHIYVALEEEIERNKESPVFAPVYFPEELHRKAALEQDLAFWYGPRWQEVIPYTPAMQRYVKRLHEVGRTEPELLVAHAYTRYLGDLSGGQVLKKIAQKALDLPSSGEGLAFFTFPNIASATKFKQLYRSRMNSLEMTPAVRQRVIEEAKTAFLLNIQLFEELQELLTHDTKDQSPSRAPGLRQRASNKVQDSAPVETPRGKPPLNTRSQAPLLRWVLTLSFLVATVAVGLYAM

[3] = target: T3, FLAG-tagged HO-1 S188A (human) (UniProt P09601); assay: co-IP; HEK293 cells co-transfected with Flag-tagged HO-1 (full length, point mutants or deletion mutants) and HA-14-3-3ζ; IP with anti-FLAG, immunoblot
T3 sequence: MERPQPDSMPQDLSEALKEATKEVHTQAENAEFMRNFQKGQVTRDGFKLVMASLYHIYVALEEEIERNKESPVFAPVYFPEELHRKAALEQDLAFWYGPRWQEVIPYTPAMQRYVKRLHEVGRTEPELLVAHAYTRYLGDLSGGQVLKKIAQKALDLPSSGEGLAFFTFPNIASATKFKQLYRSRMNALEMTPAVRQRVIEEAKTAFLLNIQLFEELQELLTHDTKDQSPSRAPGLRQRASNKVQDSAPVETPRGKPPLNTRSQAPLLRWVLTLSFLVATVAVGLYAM

[4] = target: T4, FLAG-tagged HO-1 S247A (human) (UniProt P09601); assay: as above
T4 sequence: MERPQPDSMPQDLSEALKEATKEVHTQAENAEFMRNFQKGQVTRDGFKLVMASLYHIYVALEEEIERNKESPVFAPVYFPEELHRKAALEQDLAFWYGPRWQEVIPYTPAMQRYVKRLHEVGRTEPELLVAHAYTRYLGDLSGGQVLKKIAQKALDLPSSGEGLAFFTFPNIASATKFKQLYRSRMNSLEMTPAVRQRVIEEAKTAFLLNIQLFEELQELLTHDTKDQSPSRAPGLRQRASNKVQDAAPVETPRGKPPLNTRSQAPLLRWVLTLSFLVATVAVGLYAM

[5] = target: T5, FLAG-tagged HO-1 S8A (human) (UniProt P09601); assay: as above
T5 sequence: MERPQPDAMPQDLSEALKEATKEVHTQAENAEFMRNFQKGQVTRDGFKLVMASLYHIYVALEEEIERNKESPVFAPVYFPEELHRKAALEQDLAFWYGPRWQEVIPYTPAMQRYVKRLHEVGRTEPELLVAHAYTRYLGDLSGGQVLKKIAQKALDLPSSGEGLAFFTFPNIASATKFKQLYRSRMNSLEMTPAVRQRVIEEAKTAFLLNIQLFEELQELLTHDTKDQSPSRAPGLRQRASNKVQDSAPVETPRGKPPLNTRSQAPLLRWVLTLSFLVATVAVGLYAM

[6] = target: T6, FLAG-tagged HO-1 T124A (human) (UniProt P09601); assay: as above
T6 sequence: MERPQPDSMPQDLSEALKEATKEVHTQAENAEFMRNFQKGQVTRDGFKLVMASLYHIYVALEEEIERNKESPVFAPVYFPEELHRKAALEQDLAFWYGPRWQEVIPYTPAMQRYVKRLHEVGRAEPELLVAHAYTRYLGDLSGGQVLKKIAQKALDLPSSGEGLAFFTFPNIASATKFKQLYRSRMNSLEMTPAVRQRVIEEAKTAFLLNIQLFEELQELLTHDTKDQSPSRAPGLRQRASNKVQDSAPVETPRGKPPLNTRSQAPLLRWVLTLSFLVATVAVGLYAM

[7] = target: T2, FLAG-tagged full-length heme oxygenase-1 (HO-1) (human); assay: as above
[8] = target: 14–3-3ζ (endogenous) (human (endogenous in HEK293 and Bel7402)) (UniProt P63104); assay: co-IP; Bel7402 cell lysate, endogenous proteins; IP with anti-14-3-3ζ or anti-HO-1, blot for 14–3-3ζ and HO-1

binding [1]: binds
binding [2]: binds
Molecule: 14–3-3ζ (endogenous) (from UniProt P63104 1-245)

binding [3]: binds
binding [4]: binds
binding [5]: binds
binding [6]: binds
binding [7]: binds
Molecule: HA-tagged 14–3-3ζ (from UniProt P63104 1-245)

binding [8]: binds
B1: heme oxygenase-1 (HO-1), endogenous (enzyme, UniProt P09601 1-288)
chain: MERPQPDSMPQDLSEALKEATKEVHTQAENAEFMRNFQKGQVTRDGFKLVMASLYHIYVALEEEIERNKESPVFAPVYFPEELHRKAALEQDLAFWYGPRWQEVIPYTPAMQRYVKRLHEVGRTEPELLVAHAYTRYLGDLSGGQVLKKIAQKALDLPSSGEGLAFFTFPNIASATKFKQLYRSRMNSLEMTPAVRQRVIEEAKTAFLLNIQLFEELQELLTHDTKDQSPSRAPGLRQRASNKVQDSAPVETPRGKPPLNTRSQAPLLRWVLTLSFLVATVAVGLYAM
